# In PMC7826263:
# Sequences of proteins named here, by UniProt entry; tags and fusion partners are left off. A change or cut given only in a name is not applied to a line headed by its entry.
# UniProt P12004: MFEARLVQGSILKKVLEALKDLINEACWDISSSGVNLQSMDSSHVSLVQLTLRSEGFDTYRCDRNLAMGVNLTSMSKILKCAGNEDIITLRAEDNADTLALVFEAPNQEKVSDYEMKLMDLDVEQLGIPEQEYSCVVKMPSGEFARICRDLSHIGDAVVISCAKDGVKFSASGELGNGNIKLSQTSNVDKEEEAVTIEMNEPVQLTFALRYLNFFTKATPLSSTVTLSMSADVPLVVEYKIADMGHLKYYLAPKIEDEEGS
# UniProt P49959: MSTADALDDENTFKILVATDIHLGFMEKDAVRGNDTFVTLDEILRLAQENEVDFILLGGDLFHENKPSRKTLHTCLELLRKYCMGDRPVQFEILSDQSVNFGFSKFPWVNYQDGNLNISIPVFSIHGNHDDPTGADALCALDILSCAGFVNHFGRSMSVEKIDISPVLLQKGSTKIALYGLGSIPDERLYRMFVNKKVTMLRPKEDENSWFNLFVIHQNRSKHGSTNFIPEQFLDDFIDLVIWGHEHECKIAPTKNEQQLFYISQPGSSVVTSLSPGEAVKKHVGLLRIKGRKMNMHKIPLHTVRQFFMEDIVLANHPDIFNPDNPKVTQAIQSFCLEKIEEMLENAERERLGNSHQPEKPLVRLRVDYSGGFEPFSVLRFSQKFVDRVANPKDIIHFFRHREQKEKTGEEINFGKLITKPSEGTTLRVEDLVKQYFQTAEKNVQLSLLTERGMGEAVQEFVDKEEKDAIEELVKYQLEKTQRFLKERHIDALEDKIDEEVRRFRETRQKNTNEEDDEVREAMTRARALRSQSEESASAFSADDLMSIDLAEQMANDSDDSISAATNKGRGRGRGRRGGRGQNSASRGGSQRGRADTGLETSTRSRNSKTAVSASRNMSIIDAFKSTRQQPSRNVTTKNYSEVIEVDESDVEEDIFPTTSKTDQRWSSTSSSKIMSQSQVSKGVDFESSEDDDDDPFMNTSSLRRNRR
# Results are given in words; binding and its absence hold for the method and conditions named. Binding seen in cells or lysates may run through a third protein. Some results given as binding are weak or reduced against the parent protein; the word gives no strength. For some assays here: Where a sequence is shown, tags or fusion partners need not be part of it.
# Key:
# [1] = target: T1, GFP-CtIP-K578R (human) (UniProt Q99708); assay: co-IP; GFP-Trap agarose IP of GFP-CtIP constructs from cell lysate (RIPA buffer with NEM, diluted to 150 mM NaCl; washes with 500 mM NaCl), immunoblot; some experiments after siRNA depletion of endogenous CtIP, S phase synchronisation or HU treatment for 4 h
# T1 sequence: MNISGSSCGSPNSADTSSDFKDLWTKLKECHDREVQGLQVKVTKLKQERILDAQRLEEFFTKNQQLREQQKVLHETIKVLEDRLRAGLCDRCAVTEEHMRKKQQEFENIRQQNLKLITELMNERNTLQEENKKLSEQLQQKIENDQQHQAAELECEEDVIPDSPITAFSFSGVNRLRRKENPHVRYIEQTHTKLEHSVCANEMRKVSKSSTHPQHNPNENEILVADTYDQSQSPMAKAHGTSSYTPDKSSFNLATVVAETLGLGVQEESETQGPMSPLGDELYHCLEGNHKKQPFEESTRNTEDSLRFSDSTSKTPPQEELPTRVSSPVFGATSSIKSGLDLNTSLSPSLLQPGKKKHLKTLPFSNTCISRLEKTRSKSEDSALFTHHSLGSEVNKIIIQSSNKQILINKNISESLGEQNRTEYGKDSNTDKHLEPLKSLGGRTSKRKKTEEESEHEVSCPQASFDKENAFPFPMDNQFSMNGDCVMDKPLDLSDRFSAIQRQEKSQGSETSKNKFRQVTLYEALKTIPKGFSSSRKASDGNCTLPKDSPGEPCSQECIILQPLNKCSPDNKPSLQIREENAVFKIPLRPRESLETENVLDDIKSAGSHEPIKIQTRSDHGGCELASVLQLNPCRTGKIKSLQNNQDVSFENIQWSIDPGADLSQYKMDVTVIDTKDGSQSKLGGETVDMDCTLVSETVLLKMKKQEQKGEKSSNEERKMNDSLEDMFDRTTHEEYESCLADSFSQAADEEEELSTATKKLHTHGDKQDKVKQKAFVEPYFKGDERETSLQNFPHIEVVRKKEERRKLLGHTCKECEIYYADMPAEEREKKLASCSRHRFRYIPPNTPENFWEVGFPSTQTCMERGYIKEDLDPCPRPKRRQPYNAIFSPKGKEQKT
# [2] = target: GFP-CtIP-WT (siRNA-resistant N-terminally GFP-tagged CtIP, wildtype) (human) (UniProt Q99708); assay: as above
# [3] = target: GFP-CtIP-WT (siRNA-resistant N-terminally GFP-tagged CtIP, wildtype) (human) (UniProt Q99708); assay: co-IP; GFP IP from U-2 OS depleted of endogenous CtIP by siRNA and co-transfected with RFP-PCNA and GFP-CtIP-WT or -Δ515–518; lysis in NETMN buffer (500 mM NaCl, 0.5% IGEPAL CA-630) instead of RIPA, adjusted to a composition similar to Dilution Buffer before mixing with the beads
# [4] = target: T2, GFP-CtIP-Δ515–518 (human) (UniProt Q99708); assay: as above
# T2 sequence: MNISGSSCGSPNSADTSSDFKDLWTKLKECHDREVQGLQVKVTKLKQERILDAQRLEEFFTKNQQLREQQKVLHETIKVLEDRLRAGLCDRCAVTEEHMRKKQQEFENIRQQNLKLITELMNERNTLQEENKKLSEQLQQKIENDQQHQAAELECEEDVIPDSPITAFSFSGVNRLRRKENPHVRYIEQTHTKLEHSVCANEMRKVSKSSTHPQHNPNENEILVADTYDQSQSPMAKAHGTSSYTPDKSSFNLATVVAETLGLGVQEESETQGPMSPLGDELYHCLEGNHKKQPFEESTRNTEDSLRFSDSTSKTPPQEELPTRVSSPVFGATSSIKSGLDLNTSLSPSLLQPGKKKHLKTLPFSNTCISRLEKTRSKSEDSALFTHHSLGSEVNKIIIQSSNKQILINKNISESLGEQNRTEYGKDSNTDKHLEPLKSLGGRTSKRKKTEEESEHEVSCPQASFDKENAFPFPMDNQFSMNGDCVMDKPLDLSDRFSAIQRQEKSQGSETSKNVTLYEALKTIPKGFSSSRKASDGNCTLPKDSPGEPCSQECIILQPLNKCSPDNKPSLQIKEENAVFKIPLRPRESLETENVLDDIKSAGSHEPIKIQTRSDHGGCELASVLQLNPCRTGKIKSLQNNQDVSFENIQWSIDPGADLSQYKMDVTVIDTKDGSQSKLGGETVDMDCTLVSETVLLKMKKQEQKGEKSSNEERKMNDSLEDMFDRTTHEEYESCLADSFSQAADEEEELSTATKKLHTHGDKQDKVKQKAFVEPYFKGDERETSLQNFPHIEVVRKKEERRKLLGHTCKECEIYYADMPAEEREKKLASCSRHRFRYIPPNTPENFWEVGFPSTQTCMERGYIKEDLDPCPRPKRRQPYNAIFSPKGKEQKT
binding [1],binding [2],binding [3],binding [4],Substance
binds,binds,,,"PCNA, endogenous (from UniProt P12004 1-261)"
binds,binds,,,MRN (MRE11–RAD50–NBS1) complex (from UniProt P49959 1-708; Q92878 1-1312; O60934 1-754)
binds,binds,binds,binds,RFP-PCNA (monomeric red fluorescent protein-tagged proliferating cell nuclear antigen) (from UniProt P12004 1-261)
